Measured values: the supplement of paper PMC4371806
Over roughly 1,600 compounds, “plate-normalized OD600 growth (mean of duplicates)” has its median near 0.31; the lowest 2% begin near 0.23. The list shows a part of the results.

System: Escherichia coli BW25113
Experiment: plate-normalized OD600 growth (mean of duplicates) (OD600 (normalized)); higher = more growth (less inhibition)
Settings: 10 µM
Procedure: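 E. coli BW25113 in LB (100 µl, 96-well, no shaking) was exposed to 10 µM of each compound (here the ChemBridge subset of a ~30,000-member library) and grown at 37°C for 24 h or 15°C for 48 h, in duplicate. Growth was read as OD600 and the duplicate ODs were normalized across screening plates to correct plate-to-plate variation.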

Compound	plate-normalized OD600 growth (temperature: 15°C, 48 h)	plate-normalized OD600 growth (temperature: 37°C, 24 h)
COc1cccc(CN2CCN(c3cccc(Cl)c3)CC2)c1	0.26	0.623
OCCN1CCN(Cc2cccc(F)c2)CC1	0.245	0.648
COc1cc(CN2C[C@@H]3C[C@@H](C2)c2cccc(=O)n2C3)cc(I)c1O	0.263	0.634
Fc1ccc(CN2CCN(c3cccc(Cl)c3)CC2)c(F)c1	0.253	0.623
CC1CCCC(N2CC(C)OC(C)C2)C1 (configuration not stated)	0.255	0.604
N#CC(/C=C/c1ccccc1)N1CCOCC1 (configuration not stated)	0.236	0.614
CN1CCN(c2ccc([N+](=O)[O-])c(N3CCOCC3)c2)CC1	0.266	0.627
CCOc1cc(/C=C/[N+](=O)[O-])ccc1O	0.209	0.585
Cc1cccc(C)c1-n1nnnc1C1(Nc2cccc(O)c2)CCCCC1	0.252	0.643
OC(c1ccccc1)(c1ccccc1)c1cnc[nH]1	0.262	0.618
COc1cccc(CNCCc2ccccc2F)c1	0.236	0.608
O=[N+]([O-])c1ccc(N2CCN(Cc3c(F)cccc3Cl)CC2)cc1	0.238	0.627
COc1ccc(C(=O)CCN(C)C)cc1F	0.245	0.616
COc1ccc(N2CCN(Cc3ccc(N(C)C)cc3)CC2)cc1	0.271	0.65
C/C(=C\c1ccc(N(C)C)cc1)[N+](=O)[O-]	0.244	0.633
O=C(Cc1ccccc1)NC(Cc1ccc(Cl)cc1)C(=O)O (configuration not stated)	0.247	0.611
Cc1ccccc1CN1CCN(c2ccc([N+](=O)[O-])cc2)CC1	0.23	0.605
O=[N+]([O-])c1ccc(NCCOc2ccccc2F)c2ncccc12	0.242	0.607
Fc1ccc(N2CCN(CCc3ccccc3)CC2)cc1	0.24	0.615
COc1ccc(CN2C[C@@H]3C[C@@H](C2)c2cccc(=O)n2C3)cc1Br	0.266	0.634
Fc1ccc(CCNCc2ccc3c(c2)OCO3)cc1	0.257	0.619

Reformatted comma-delimited: part of the list above.
Compound,"plate-normalized OD600 growth (temperature: 15°C, 48 h)","plate-normalized OD600 growth (temperature: 37°C, 24 h)"
COc1cc(CN2C[C@@H]3C[C@@H](C2)c2cccc(=O)n2C3)cc(I)c1O,0.263,0.634
CCOc1cc(/C=C/[N+](=O)[O-])ccc1O,0.209,0.585
C/C(=C\c1ccc(N(C)C)cc1)[N+](=O)[O-],0.244,0.633
COc1ccc(CN2C[C@@H]3C[C@@H](C2)c2cccc(=O)n2C3)cc1Br,0.266,0.634
